≈ marks a conversion by molar mass, not a printed value.
Assay: physchem
Details: pH 8

Compound: CN1C(=O)c2ccc(NC(=O)[C@@H]3CCCN3S(=O)(=O)c3ccc(Cl)s3)cc2C1=O [Compound 07]
- solubility: 50 to 79 µM (≈ 22.7 to 35.9 µg/mL)

Compound: N#Cc1ccc(N2C(=O)[C@@H]3C(C(=O)c4ccc5ccccc5n4)=NN[C@@H]3C2=O)cc1 [Compound 13]
- solubility: 199 to 316 µM (≈ 78.7 to 125 µg/mL)
